Measurements reported in PubChem BioAssay AID1159578 (Peter MacCallum Cancer Centre, 2015).

Test: 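Genome-wide hunt for genes controlling movement of lymphatic endothelial cells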 (primary screen)
Cell system: human lymphatic endothelial cells
Knock-down reagent: siRNA pool against human genes, 40 nM
Duration: 48 h after transfection
Detection: 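Cells stained with dye and imaged after a scratch; covered wound area and nuclei counted, duplicates averaged, migration set against mock wells and turned into a robust z-score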
Direction: migration robust z-score: higher = faster migration into the scratch; nuclei per well: higher = more cells in the well
Hit rule: 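Migration changed when robust z exceeds 2 or falls below -2 and mean nuclei number is at least 3300; otherwise not called changed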
Meaning of the calls: active = migration changed; inactive = no migration change, or too few cells
Here is an unselected part of about 18,000 reagents tested. In the full data, about 1,030 (5.7%) were called active. 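Inactive calls also include pools with fewer than 3300 nuclei, whose migration was not assessed.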 Raw values are not corrected between plates. A number with no mark means an inactive call. Further read-outs or replicates are left out here. Reagent sequences are not shown.

The opening 2 records as a preview:
MIXL1 (GeneID 83881) — migration robust z-score = 0.49; nuclei per well, duplicate mean = 6338
ZNF615 (GeneID 284370) — migration robust z-score = 1.5; nuclei per well, duplicate mean = 6674

The listing, repeating the preview:
MIXL1 (GeneID 83881) — migration robust z-score = 0.49; nuclei per well, duplicate mean = 6338
ZNF615 (GeneID 284370) — migration robust z-score = 1.5; nuclei per well, duplicate mean = 6674
DKK2 (GeneID 27123) — migration robust z-score = 0.53; nuclei per well, duplicate mean = 4084
SPDL1 (GeneID 54908) — migration robust z-score = 1; nuclei per well, duplicate mean = 4591
PAX3 (GeneID 5077) — migration robust z-score = -0.6; nuclei per well, duplicate mean = 6526
CNGA2 (GeneID 1260) — migration robust z-score = -0.36; nuclei per well, duplicate mean = 5956
CCR5 (GeneID 1234) — migration robust z-score = -0.99; nuclei per well, duplicate mean = 5034
HHLA2 (GeneID 11148) — migration robust z-score = -0.32; nuclei per well, duplicate mean = 5606
S100A7P3 (GeneID 645922) — migration robust z-score = 0.28; nuclei per well, duplicate mean = 5995
CD22 (GeneID 933) — migration robust z-score = -0.41; nuclei per well, duplicate mean = 6556
MAN2B1 (GeneID 4125) — migration robust z-score = -0.91; nuclei per well, duplicate mean = 5522
OR2T27 (GeneID 403239) — migration robust z-score = -0.48; nuclei per well, duplicate mean = 6461
H2BC15 (GeneID 8341) — migration robust z-score = -1.34; nuclei per well, duplicate mean = 4221
KRTAP5-10 (GeneID 387273) — migration robust z-score = 1.21; nuclei per well, duplicate mean = 6652
PSMD13 (GeneID 5719) — migration robust z-score = 0.16; nuclei per well, duplicate mean = 6438
CLLU1 (GeneID 574028) — migration robust z-score = -0.83; nuclei per well, duplicate mean = 4761
MICALL2 (GeneID 79778) — migration robust z-score = -0.69; nuclei per well, duplicate mean = 5010
CAND1 (GeneID 55832) — migration robust z-score = 1.4; nuclei per well, duplicate mean = 6150
ZCCHC9 (GeneID 84240) — migration robust z-score = -0.8; nuclei per well, duplicate mean = 5816
GDAP2 (GeneID 54834) — migration robust z-score = 0.6; nuclei per well, duplicate mean = 5520
ZNF24 (GeneID 7572) — migration robust z-score = -1.87; nuclei per well, duplicate mean = 4564
